Source: paper PMC4678300
Results are given in words; binding and its absence hold for the method and conditions named. In cells and extracts the contact can be indirect. Some results given as binding are weak or reduced against the parent protein; the word gives no strength. For some assays here: Sequences can lack the tags named with a protein.

Amino acid sequences for entries named in this document (tags omitted).
UniProt P35568: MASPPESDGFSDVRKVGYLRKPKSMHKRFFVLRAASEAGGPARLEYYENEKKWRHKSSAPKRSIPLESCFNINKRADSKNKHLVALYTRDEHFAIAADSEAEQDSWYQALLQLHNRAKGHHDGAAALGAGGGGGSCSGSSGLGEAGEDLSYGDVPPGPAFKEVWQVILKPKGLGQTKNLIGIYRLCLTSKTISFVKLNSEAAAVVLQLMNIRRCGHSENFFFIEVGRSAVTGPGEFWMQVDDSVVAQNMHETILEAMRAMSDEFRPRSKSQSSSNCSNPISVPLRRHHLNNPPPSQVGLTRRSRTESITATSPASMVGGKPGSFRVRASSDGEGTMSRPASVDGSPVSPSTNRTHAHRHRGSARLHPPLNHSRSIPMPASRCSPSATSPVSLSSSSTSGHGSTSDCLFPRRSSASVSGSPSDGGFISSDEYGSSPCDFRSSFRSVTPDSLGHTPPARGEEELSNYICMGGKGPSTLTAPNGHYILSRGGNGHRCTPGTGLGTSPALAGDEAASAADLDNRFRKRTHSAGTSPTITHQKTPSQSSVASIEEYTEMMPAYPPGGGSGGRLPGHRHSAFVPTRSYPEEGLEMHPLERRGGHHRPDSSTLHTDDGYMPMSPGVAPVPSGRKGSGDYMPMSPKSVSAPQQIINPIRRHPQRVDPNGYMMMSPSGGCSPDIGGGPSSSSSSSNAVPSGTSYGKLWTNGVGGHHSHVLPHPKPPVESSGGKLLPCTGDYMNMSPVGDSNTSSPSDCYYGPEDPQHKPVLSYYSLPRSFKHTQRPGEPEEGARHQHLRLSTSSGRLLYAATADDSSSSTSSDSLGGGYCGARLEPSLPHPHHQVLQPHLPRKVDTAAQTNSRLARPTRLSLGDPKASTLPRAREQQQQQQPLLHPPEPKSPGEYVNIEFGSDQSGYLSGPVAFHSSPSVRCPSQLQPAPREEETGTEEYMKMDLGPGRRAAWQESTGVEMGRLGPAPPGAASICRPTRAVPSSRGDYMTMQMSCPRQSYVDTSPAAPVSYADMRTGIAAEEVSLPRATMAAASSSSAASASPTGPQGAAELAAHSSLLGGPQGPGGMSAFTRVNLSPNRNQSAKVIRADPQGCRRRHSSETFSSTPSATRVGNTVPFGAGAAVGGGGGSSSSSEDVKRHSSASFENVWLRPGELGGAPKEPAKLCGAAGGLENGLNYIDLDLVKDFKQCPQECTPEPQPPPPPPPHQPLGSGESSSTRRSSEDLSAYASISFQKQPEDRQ

Columns and labels:
[1] = biological target: T1, PP4 (protein phosphatase 4), endogenous (human (endogenous in HepG2)) (UniProt P60510); experiment: co-IP; endogenous proteins in HepG2 lysate; lysis in 50 mM Tris-HCl pH 8.0, 1% Nonidet P-40, 120 mM NaCl, 1 mM EDTA, 6 mM EGTA, 1 mM DTT; precipitated with anti-PP4 antibody, IRS-1 detected
T1 sequence: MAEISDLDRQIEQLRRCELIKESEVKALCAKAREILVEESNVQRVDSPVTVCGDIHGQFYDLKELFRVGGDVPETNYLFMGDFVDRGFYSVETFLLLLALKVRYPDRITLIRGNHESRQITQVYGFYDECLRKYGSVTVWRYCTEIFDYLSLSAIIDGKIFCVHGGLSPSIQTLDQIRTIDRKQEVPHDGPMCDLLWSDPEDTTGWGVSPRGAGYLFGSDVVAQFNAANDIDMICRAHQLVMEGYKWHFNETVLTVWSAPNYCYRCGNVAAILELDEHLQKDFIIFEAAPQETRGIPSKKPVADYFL

[2] = biological target: T2, HA-tagged PP4 (protein phosphatase 4) (human) (UniProt P60510); experiment: co-IP; HA-PP4 transfected into HepG2 cells; lysis in 50 mM Tris-HCl pH 8.0, 1% Nonidet P-40, 120 mM NaCl, 1 mM EDTA, 6 mM EGTA, 1 mM DTT; precipitated with anti-HA antibody, endogenous IRS-1 detected
T2 sequence: T1 sequence

“IRS-1, endogenous (from UniProt P35568 1-1242)” was tested, and the binding [1] was “binds” and the binding [2] was “binds”.
